# Reference: the supplement of paper PMC8728848
# Some of the results follow.
# B1: Clec39 (Caenorhabditis elegans) (protein)
# chain: MTSFYDNSSSSSKPVPLKTSRAQKIQILIFDNWKLILYGAISTLILVLAIMFSTLFFALPAANCDENSEPTKYYTTNAEITTTITTTNQKTTSTASSHLTTISSSATQIYSESSSSSTSQSTFTQSPPEISTTTIAPSDFSCQHGFTLVNNKCWKLVTSNQARPDADKICNGYGGATLFSIKSEQDNRAMIHFVKGQDIDFLWSGLLCSAGEPISCIWDIENGSTANYSNFADGFPNIVYGNCVYFITSGDEAGQWGNEQCGQVMNFVCELPATFQGKDGCKNNYEKSCYLRFDLNLTVPQAQNFCLEKCANLVSIHSANEVRFIMTIYDFIGEILIGALAPAQDFIYWLDGTPANYNNLKFFYNSTCVHMTVAPGMQNVGKWFTRFCTETGKFLCKRSIKNSCT
# Assays:
# Experiment in all cases: glycan array binding signal (z-score within array); higher = stronger binding
# Settings in all cases: glycan notation: IUPAC condensed, linker removed
# [1] = molecular target: Gal(b1-4)GlcNAc(b1-2)Man(a1-3)[Gal(b1-4)GlcNAc(b1-2)Man(a1-6)]Man(b1-4)GlcNAc(b1-4)[Fuc(a1-6)]GlcNAc
# How it was run: (§1)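 The binding signal is a Z-score computed within each array. Data were drawn from 3228 arrays in the Consortium for Functional Glycomics database, restricted to those with a known protein sequence. Scores were averaged over arrays of the same protein sequence at different concentrations or buffers, and over linkers, and negative values can be taken as non-binding.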
# [2] = molecular target: Gal(b1-4)GlcNAc(b1-2)Man(a1-3)[Gal(b1-4)GlcNAc(b1-2)Man(a1-6)][Gal(b1-4)GlcNAc(b1-4)]Man(b1-4)GlcNAc(b1-4)[Fuc(a1-6)]GlcNAc
# How it was run: as §1
# [3] = molecular target: Gal(b1-4)GlcNAc(b1-2)Man(a1-3)[Gal(b1-4)GlcNAc(b1-2)Man(a1-6)][GlcNAc(b1-4)]Man(b1-4)GlcNAc(b1-4)[Fuc(a1-6)]GlcNAc
# How it was run: as §1
# [4] = molecular target: Gal(b1-4)GlcNAc(b1-2)Man(a1-3)[GlcNAc(b1-2)Man(a1-6)]Man(b1-4)GlcNAc(b1-4)GlcNAc
# How it was run: as §1
# [5] = molecular target: Gal(b1-4)GlcNAc(b1-2)Man(a1-3)[GlcNAc(b1-4)][Gal(b1-4)GlcNAc(b1-2)Man(a1-6)]Man(b1-4)GlcNAc(b1-4)GlcNAc
# How it was run: as §1
# [6] = molecular target: Gal(b1-4)GlcNAc(b1-2)Man(a1-3)[Man(a1-6)]Man(b1-4)GlcNAc(b1-4)GlcNAc
# How it was run: as §1
# [7] = molecular target: Gal(b1-4)GlcNAc(b1-2)Man(a1-6)Man(b1-4)GlcNAc(b1-4)GlcNAc
# How it was run: as §1
# [8] = molecular target: Gal(b1-4)GlcNAc(b1-2)Man(a1-6)[GlcNAc(b1-2)Man(a1-3)]Man(b1-4)GlcNAc(b1-4)GlcNAc
# How it was run: as §1
# [9] = molecular target: Gal(b1-4)GlcNAc(b1-2)Man(a1-6)[Man(a1-3)]Man(b1-4)GlcNAc(b1-4)GlcNAc
# How it was run: as §1
# [10] = molecular target: Gal(b1-4)GlcNAc(b1-2)[Gal(b1-4)GlcNAc(b1-4)]Man(a1-3)[Gal(b1-4)GlcNAc(b1-2)Man(a1-6)]Man(b1-4)GlcNAc(b1-4)GlcNAc
# How it was run: as §1
# [11] = molecular target: Gal(b1-4)GlcNAc(b1-2)[Gal(b1-4)GlcNAc(b1-4)]Man(a1-3)[Gal(b1-4)GlcNAc(b1-2)[Gal(b1-4)GlcNAc(b1-6)]Man(a1-6)]Man(b1-4)GlcNAc(b1-4)GlcNAc
# How it was run: as §1
# [12] = molecular target: Gal(b1-4)GlcNAc(b1-2)[Gal(b1-4)GlcNAc(b1-4)]Man(a1-3)[GlcNAc(b1-4)][Gal(b1-4)GlcNAc(b1-2)Man(a1-6)]Man(b1-4)GlcNAc(b1-4)GlcNAc
# How it was run: as §1
# [13] = molecular target: Gal(b1-4)GlcNAc(b1-2)[Gal(b1-4)GlcNAc(b1-4)]Man(a1-3)[GlcNAc(b1-4)][Gal(b1-4)GlcNAc(b1-2)[Gal(b1-4)GlcNAc(b1-6)]Man(a1-6)]Man(b1-4)GlcNAc(b1-4)GlcNAc
# How it was run: as §1
# [14] = molecular target: Gal(b1-4)GlcNAc(b1-2)[Gal(b1-4)GlcNAc(b1-6)]Man(a1-6)[Gal(b1-4)GlcNAc(b1-2)Man(a1-3)]Man(b1-4)GlcNAc(b1-4)GlcNAc
# How it was run: as §1
# [15] = molecular target: Gal(b1-4)GlcNAc(b1-2)[Gal(b1-4)GlcNAc(b1-6)]Man(a1-6)[Gal(b1-4)GlcNAc(b1-2)Man(a1-3)]Man(b1-4)GlcNAc(b1-4)[Fuc(a1-6)]GlcNAc
# How it was run: as §1
# [16] = molecular target: Gal(b1-4)GlcNAc(b1-2)[Gal(b1-4)GlcNAc(b1-6)]Man(a1-6)[GlcNAc(b1-4)][Gal(b1-4)GlcNAc(b1-2)Man(a1-3)]Man(b1-4)GlcNAc(b1-4)GlcNAc
# How it was run: as §1
# [17] = molecular target: Gal(b1-4)GlcNAc(b1-2)[Gal(b1-4)GlcNAc(b1-6)]Man(a1-6)[GlcNAc(b1-4)][Gal(b1-4)GlcNAc(b1-2)[Gal(b1-4)GlcNAc(b1-4)]Man(a1-3)]Man(b1-4)GlcNAc(b1-4)[Fuc(a1-6)]GlcNAc
# How it was run: as §1
# [18] = molecular target: Gal(b1-4)GlcNAc(b1-3)Gal(b1-3)GalNAc
# How it was run: as §1
# [19] = molecular target: Gal(b1-4)GlcNAc(b1-3)Gal(b1-3)GlcNAc
# How it was run: as §1
binder,measurement,setting,value
B1,glycan array binding signal (z-score),[1],0.691
same,glycan array binding signal (z-score),[2],-0.793
same,glycan array binding signal (z-score),[3],-0.726
same,glycan array binding signal (z-score),[4],-0.612
same,glycan array binding signal (z-score),[5],-0.063
same,glycan array binding signal (z-score),[6],0.19
same,glycan array binding signal (z-score),[7],-0.965
same,glycan array binding signal (z-score),[8],-0.913
same,glycan array binding signal (z-score),[9],-0.475
same,glycan array binding signal (z-score),[10],0.129
same,glycan array binding signal (z-score),[11],-0.277
same,glycan array binding signal (z-score),[12],-0.762
same,glycan array binding signal (z-score),[13],-0.778
same,glycan array binding signal (z-score),[14],-0.353
same,glycan array binding signal (z-score),[15],-0.198
same,glycan array binding signal (z-score),[16],0.154
same,glycan array binding signal (z-score),[17],1.43
same,glycan array binding signal (z-score),[18],-0.537
same,glycan array binding signal (z-score),[19],-0.657

# 2 entries from above in a different format.
binder	measurement	setting	value
B1	glycan array binding signal (z-score)	[12]	-0.762
same	glycan array binding signal (z-score)	[17]	1.43
